Laboratory results: publication doi:10.1101/2021.10.03.462970
No constants are given. Whether binding was seen depends on the method and setting. In cells and extracts the contact can be indirect. Some results given as binding are weak or reduced against the parent protein; the word gives no strength.

By UniProt entry, the sequences of proteins in these tests, tags left out. Where a name states a change or a piece, a line headed by the entry shows the natural chain unless it says otherwise.
UniProt P97879, whole entry: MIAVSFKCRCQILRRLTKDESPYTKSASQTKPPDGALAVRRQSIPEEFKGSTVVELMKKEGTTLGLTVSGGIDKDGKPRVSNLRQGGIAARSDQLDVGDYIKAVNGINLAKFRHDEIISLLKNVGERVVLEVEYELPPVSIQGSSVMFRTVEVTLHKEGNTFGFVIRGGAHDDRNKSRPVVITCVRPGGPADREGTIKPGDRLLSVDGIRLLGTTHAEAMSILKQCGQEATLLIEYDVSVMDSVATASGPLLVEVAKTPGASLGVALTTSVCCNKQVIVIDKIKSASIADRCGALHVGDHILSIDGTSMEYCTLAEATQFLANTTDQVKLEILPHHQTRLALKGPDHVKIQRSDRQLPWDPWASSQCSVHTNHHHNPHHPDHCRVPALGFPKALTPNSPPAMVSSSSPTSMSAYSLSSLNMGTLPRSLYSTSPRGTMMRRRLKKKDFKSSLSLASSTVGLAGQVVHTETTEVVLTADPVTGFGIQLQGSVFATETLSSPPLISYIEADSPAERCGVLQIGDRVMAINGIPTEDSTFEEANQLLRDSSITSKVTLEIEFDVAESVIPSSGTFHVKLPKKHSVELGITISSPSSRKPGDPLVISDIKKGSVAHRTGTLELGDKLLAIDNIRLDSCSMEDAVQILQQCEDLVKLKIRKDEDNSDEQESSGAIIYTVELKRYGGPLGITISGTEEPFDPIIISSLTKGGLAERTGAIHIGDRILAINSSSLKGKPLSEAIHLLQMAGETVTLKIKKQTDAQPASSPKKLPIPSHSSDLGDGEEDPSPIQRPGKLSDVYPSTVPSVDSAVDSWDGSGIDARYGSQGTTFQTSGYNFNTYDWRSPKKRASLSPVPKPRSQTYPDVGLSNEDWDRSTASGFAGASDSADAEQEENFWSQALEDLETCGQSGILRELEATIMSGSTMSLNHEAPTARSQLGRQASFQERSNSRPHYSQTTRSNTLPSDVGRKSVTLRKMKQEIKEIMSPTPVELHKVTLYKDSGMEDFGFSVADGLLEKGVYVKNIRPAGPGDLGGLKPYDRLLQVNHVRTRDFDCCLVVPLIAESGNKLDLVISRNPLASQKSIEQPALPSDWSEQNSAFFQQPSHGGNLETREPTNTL

Target: Grip1-V5 (UniProt P97879)
Experiment: co-IP

Row | binding | Substance
1 | binds | GluA3 K887A, full length (from UniProt P19492-2 23-888) (receptor)
2 | no binding | GluA3 S885A, full length (from UniProt P19492-2 23-888) (receptor)
3 | binds | GluA3 (AMPA-receptor subunit GluA3), full length (from UniProt P19492-2 23-888)
